# Measured values reported in ChEMBL document CHEMBL4316593 (Eur J Med Chem, 2019).
# Further values from the same series stand in other lists.
# Tests used:
# Type in all cases: cell-based
# Details in all cases: U-87MG ATCC
# [1] = Inhibition of RTK/PI3K/AKT/mTOR signaling in human U87 cells assessed as down regulation of PSMB9 gene expression at cytotoxic IC50 measured after 48 hrs relative to control
# [2] = Inhibition of RTK/PI3K/AKT/mTOR signaling in human U87 cells assessed as down regulation of AURKB gene expression at cytotoxic IC50 measured after 48 hrs relative to control
# [3] = Inhibition of RTK/PI3K/AKT/mTOR signaling in human U87 cells assessed as down regulation of VPS16 gene expression at cytotoxic IC50 measured after 48 hrs relative to control
# [4] = Inhibition of RTK/PI3K/AKT/mTOR signaling in human U87 cells assessed as down regulation of PDE12 gene expression at cytotoxic IC50 measured after 48 hrs relative to control
# [5] = Inhibition of RTK/PI3K/AKT/mTOR signaling in human U87 cells assessed as up regulation of leukotriene A4 hydrolase gene expression at cytotoxic IC50 measured after 48 hrs relative to control
# [6] = Inhibition of RTK/PI3K/AKT/mTOR signaling in human U87 cells assessed as up regulation of CUX1 gene expression at cytotoxic IC50 measured after 48 hrs relative to control
# [7] = Inhibition of RTK/PI3K/AKT/mTOR signaling in human U87 cells assessed as down regulation of ABCA5 gene expression at cytotoxic IC50 measured after 48 hrs relative to control
# [8] = Inhibition of RTK/PI3K/AKT/mTOR signaling in human U87 cells assessed as up regulation of RPL37 gene expression at cytotoxic IC50 measured after 48 hrs relative to control
# [9] = Inhibition of RTK/PI3K/AKT/mTOR signaling in human U87 cells assessed as up regulation of DDX18 gene expression at cytotoxic IC50 measured after 48 hrs relative to control
# [10] = Inhibition of RTK/PI3K/AKT/mTOR signaling in human U87 cells assessed as down regulation of NEK7 gene expression at cytotoxic IC50 measured after 48 hrs relative to control
# [11] = Inhibition of RTK/PI3K/AKT/mTOR signaling in human U87 cells assessed as down regulation of GCNT1 gene expression at cytotoxic IC50 measured after 48 hrs relative to control
# [12] = Inhibition of RTK/PI3K/AKT/mTOR signaling in human U87 cells assessed as up regulation of MRT4 homolog, ribosome maturation factor gene expression at cytotoxic IC50 measured after 48 hrs relative to control
# [13] = Inhibition of RTK/PI3K/AKT/mTOR signaling in human U87 cells assessed as down regulation of CDK7 gene expression at cytotoxic IC50 measured after 48 hrs relative to control
# [14] = Inhibition of RTK/PI3K/AKT/mTOR signaling in human U87 cells assessed as up regulation of FBXL19 gene expression at cytotoxic IC50 measured after 48 hrs relative to control
# [15] = Inhibition of RTK/PI3K/AKT/mTOR signaling in human U87 cells assessed as up regulation of family with sequence similarity 208 member A gene expression at cytotoxic IC50 measured after 48 hrs relative to control
# [16] = Inhibition of RTK/PI3K/AKT/mTOR signaling in human U87 cells assessed as down regulation of PHF3 gene expression at cytotoxic IC50 measured after 48 hrs relative to control
# [17] = Inhibition of RTK/PI3K/AKT/mTOR signaling in human U87 cells assessed as up regulation of DnaJ heat shock protein family (Hsp40) member C18 gene expression at cytotoxic IC50 measured after 48 hrs relative to control
# [18] = Inhibition of RTK/PI3K/AKT/mTOR signaling in human U87 cells assessed as down regulation of SNX7 gene expression at cytotoxic IC50 measured after 48 hrs relative to control
# [19] = Inhibition of RTK/PI3K/AKT/mTOR signaling in human U87 cells assessed as up regulation of TMEM158 gene expression at cytotoxic IC50 measured after 48 hrs relative to control
# [20] = Inhibition of RTK/PI3K/AKT/mTOR signaling in human U87 cells assessed as up regulation of ribosomal RNA processing 1 gene expression at cytotoxic IC50 measured after 48 hrs relative to control
# [21] = Inhibition of RTK/PI3K/AKT/mTOR signaling in human U87 cells assessed as up regulation of rhophilin Rho GTPase binding protein 2 gene expression at cytotoxic IC50 measured after 48 hrs relative to control
# [22] = Inhibition of RTK/PI3K/AKT/mTOR signaling in human U87 cells assessed as down regulation of BARD1 gene expression at cytotoxic IC50 measured after 48 hrs relative to control
# [23] = Inhibition of RTK/PI3K/AKT/mTOR signaling in human U87 cells assessed as down regulation of BPGM gene expression at cytotoxic IC50 measured after 48 hrs relative to control
# [24] = Inhibition of RTK/PI3K/AKT/mTOR signaling in human U87 cells assessed as down regulation of CWC15 gene expression at cytotoxic IC50 measured after 48 hrs relative to control
# [25] = Inhibition of RTK/PI3K/AKT/mTOR signaling in human U87 cells assessed as up regulation of ArfGAP with RhoGAP domain, ankyrin repeat and PH domain 3 gene expression at cytotoxic IC50 measured after 48 hrs relative to control
# [26] = Inhibition of RTK/PI3K/AKT/mTOR signaling in human U87 cells assessed as up regulation of serine and arginine rich splicing factor 8 gene expression at cytotoxic IC50 measured after 48 hrs relative to control
# [27] = Inhibition of RTK/PI3K/AKT/mTOR signaling in human U87 cells assessed as up regulation of CLGN gene expression at cytotoxic IC50 measured after 48 hrs relative to control
# [28] = Inhibition of RTK/PI3K/AKT/mTOR signaling in human U87 cells assessed as down regulation of PSME3 gene expression at cytotoxic IC50 measured after 48 hrs relative to control
# [29] = Inhibition of RTK/PI3K/AKT/mTOR signaling in human U87 cells assessed as up regulation of phosphoglycerate mutase 1 gene expression at cytotoxic IC50 measured after 48 hrs relative to control
# [30] = Inhibition of RTK/PI3K/AKT/mTOR signaling in human U87 cells assessed as up regulation of PLLP gene expression at cytotoxic IC50 measured after 48 hrs relative to control
# [31] = Inhibition of RTK/PI3K/AKT/mTOR signaling in human U87 cells assessed as down regulation of CAPN5 gene expression at cytotoxic IC50 measured after 48 hrs relative to control
# [32] = Inhibition of RTK/PI3K/AKT/mTOR signaling in human U87 cells assessed as up regulation of ARTN gene expression at cytotoxic IC50 measured after 48 hrs relative to control
compound,measurement,setting,value
CC(=O)C(=NNc1ccccc1C#N)C(C)=O,log2FC,[1],-1.66
same,log2FC,[2],-0.884
same,log2FC,[3],-0.858
same,log2FC,[4],-0.923
same,log2FC,[5],0.746
same,log2FC,[6],0.576
same,log2FC,[7],-0.873
same,log2FC,[8],0.415
same,log2FC,[9],0.404
same,log2FC,[10],-0.92
same,log2FC,[11],-2.24
same,log2FC,[12],0.751
same,log2FC,[13],-0.832
same,log2FC,[14],1.67
same,log2FC,[15],1.46
same,log2FC,[16],-0.592
same,log2FC,[17],1.22
same,log2FC,[18],-0.839
same,log2FC,[19],2.2
same,log2FC,[20],0.773
same,log2FC,[21],0.865
same,log2FC,[22],-1.35
same,log2FC,[23],-1.87
same,log2FC,[24],-0.565
same,log2FC,[25],1.51
same,log2FC,[26],0.838
same,log2FC,[27],1.61
same,log2FC,[28],-0.471
same,log2FC,[29],1.22
same,log2FC,[30],2.02
same,log2FC,[31],-1.93
same,log2FC,[32],2.65
